Laboratory results: paper PMC7329144
No constants are given. Whether binding was seen depends on the method and setting. For part of these data: A result given as binding can be weak or reduced; the word gives no strength. Tags and fused reporters may be left off the sequences shown. For part of these data: Binding seen in cells or lysates may run through a third protein. Each block holds one binder with its values, some of them ahead of it.

Key:
[1] = molecular target: GST-Yrt (Yurt, isoform PA) (Drosophila); assay: pull-down; GST-tagged proteins as baits, MBP-tagged Tctp as prey; 10 μg/mL of each; PDB buffer (20 mM Tris-HCl pH 7.5, 150 mM NaCl, 0.5 mM EDTA, 10% glycerol, 0.1% Triton X-100, 1 mM DTT); both purified
[2] = molecular target: GST-Yrt FA (FERM-adjacent region of Yurt) (Drosophila); assay: as above
[3] = molecular target: GST-Dlg (Discs-large, isoform PG) (Drosophila); assay: as above
[4] = molecular target: GST-Yrt VR (variable region of Yurt) (Drosophila); assay: as above
[5] = molecular target: GST-Crb^intra (intracellular domain of Crumbs) (Drosophila); assay: as above
[6] = molecular target: GST-Cora (Coracle, isoform PC) (Drosophila); assay: as above
[7] = molecular target: GST-Yrt FERM (FERM region of Yurt) (Drosophila); assay: as above
Flag-Cora (Drosophila) = assay: co-IP; S2 cells transiently transfected with Flag- and Myc-tagged constructs, lysed 24 h after transfection; lysis buffer 20 mM HEPES pH 7.5, 100 mM KCl, 2.5 mM EDTA, 5% glycerol, 0.05% Triton X-100; immunoprecipitation at 4°C overnight
Flag-Yrt (Drosophila) = assay: as above

binding [1]: binds | binding [2]: binds | binding [3]: no binding | binding [4]: no binding | binding [5]: no binding | binding [6]: binds | binding [7]: binds
B1: MBP-Tctp fusion protein (Drosophila translationally controlled tumor protein) (protein, UniProt Q9VGS2 1-172)
chain: MKIYKDIITGDEMFADTYKMKLVDDVIYEVYGKLITRQGDDIKLEGANASAEEADEGTDITSESGVDVVLNHRLTECFAFGDKKSYTLYLKDYMKKVLAKLEEKSPDQVDIFKTNMNKAMKDILGRFKELQFFTGESMDCDGMVALVEYREINGDSVPVLMFFKHGLEEEKC

binding (Flag-Cora (Drosophila)): binds | binding (Flag-Yrt (Drosophila)): binds
B2: Myc-Tctp (protein, UniProt Q9VGS2 1-172)
chain: B1 chain
